These are yes or no findings as the source states them, for the method shown. Some results given as binding are weak or reduced against the parent protein; the word gives no strength.
Target: RSV-F (Strain RSS-2) (respiratory syncytial virus (Strain RSS-2)) (UniProt P11209)
Experiment: ELISA, antigen coated on plate, anti-human IgG-HRP detection

B1: fully human anti-RSV monoclonal antibody R66 (antibody, V domains shown)
VH: EVQLVESGGGLVQPGRSLRLSCTASGFTFADYSMTWVRQAPGKGLEWVGLIKRNAYGGTTEYAASVRGRFTISRDDSRSIAYLQMHSLKSEDTAVYFCLRGYSGYDWEGLDAFEVWGQGTMVTVSS
VL: DIQMTQSPSAMSASVGDRVTITCRASQGSSTYLAWFQQKPGKVPKRLIYAVSSLQSGVPSRFSGSGSGTEFTLTISSLQPEDSATYYCLQHNSFPLTFGQGTKVEIK
notes: expressed in 293T cells, Protein A purified; heavy chain about 50 kDa, light chain about 22 kDa; also called R66 antibody
With B1 the binding was “binds”.

— patent publication US20180264103A1 (ELITEIMMUNE, published 2018)
